From article PMC4797267, “The CSB chromatin remodeler and CTCF architectural protein cooperate in response to oxidative stress”

By UniProt entry, the sequences of proteins in these tests, tags left out. Where a name states a change or a piece, a line headed by the entry shows the natural chain unless it says otherwise.
UniProt Q03468: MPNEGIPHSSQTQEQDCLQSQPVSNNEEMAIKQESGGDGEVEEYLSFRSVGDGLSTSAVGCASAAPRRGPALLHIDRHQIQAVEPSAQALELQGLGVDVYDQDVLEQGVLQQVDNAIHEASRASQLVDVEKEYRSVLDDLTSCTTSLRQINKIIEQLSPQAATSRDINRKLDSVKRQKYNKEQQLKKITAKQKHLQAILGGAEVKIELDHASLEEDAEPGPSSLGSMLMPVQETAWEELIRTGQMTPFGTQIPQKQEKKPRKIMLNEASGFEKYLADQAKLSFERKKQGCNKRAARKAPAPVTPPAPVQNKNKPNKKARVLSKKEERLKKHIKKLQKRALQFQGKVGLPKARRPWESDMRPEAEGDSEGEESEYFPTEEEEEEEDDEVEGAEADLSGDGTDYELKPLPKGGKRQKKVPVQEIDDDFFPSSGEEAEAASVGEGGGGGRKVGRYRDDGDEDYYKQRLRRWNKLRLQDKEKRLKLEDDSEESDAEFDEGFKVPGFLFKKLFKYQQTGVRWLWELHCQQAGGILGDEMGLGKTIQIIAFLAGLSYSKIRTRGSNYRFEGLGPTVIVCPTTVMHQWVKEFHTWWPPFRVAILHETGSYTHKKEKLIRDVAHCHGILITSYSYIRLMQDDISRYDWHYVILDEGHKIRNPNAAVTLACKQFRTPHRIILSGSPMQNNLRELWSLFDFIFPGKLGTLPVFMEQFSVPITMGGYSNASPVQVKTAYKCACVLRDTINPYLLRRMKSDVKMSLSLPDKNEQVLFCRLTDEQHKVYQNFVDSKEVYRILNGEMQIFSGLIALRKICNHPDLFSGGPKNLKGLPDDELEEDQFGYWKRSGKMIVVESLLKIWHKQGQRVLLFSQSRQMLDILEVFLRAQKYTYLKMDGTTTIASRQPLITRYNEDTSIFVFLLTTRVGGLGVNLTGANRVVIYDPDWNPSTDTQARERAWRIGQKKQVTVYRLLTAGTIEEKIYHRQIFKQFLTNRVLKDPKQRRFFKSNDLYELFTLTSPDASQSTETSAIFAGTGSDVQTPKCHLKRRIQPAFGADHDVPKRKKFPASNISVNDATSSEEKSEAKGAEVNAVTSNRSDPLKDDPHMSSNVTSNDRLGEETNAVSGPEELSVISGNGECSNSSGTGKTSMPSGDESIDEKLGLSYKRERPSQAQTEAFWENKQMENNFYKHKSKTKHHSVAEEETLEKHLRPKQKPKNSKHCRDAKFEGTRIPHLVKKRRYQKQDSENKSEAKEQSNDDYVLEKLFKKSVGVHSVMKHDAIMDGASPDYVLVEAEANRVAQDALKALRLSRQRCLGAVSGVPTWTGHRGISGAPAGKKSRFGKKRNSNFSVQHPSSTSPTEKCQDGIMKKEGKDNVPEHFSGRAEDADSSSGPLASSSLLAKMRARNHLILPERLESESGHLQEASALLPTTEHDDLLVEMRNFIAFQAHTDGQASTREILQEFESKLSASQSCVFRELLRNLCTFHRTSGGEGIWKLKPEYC

Experiments:
CSB = CSB (UniProt Q03468); assay: EMSA; details: CSB alone, complexes resolve as smears; 30 mM HEPES pH 7.9, 60 mM NaCl, 6% glycerol, 6 mM MgCl2, 100 uM ZnSO4, 0.02% NP40, 30 C 10 min; 1 nM DNA; 5% native PAGE, 0.5x TBE; recombinant protein; protein details: N-terminal Flag; label: 32P (body label, PCR with 32P-dATP)
MBP = assay: EMSA; details: 100 uM ZnSO4, 6 mM Mg2+; 30 mM HEPES pH 7.9, 60 mM NaCl, 6% glycerol, 6 mM MgCl2, 100 uM ZnSO4, 0.02% NP40, 30 C 10 min; 1 nM DNA; 5% native PAGE, 0.5x TBE; recombinant protein; label: 32P (body label, PCR with 32P-dATP)

“CACACCGAGTTCATCCCTTATGTGATGGACCCTCCACGAGGGGGCCCTGGAGAATCCCGGTGCCGAGGCTGCAGAATTGGTCGTAGACAGCTCTAGCACCGCTTAAACGCACGTACGCGCTGTCCCCCGCGTTTTAACCGCCAAGGGGATTACTCCCTAGTCTCCAGGCACGTGTCAGATATATACATCCTGT (double strand) [200 bp DNA fragment with CTCF-binding site (Fig. S4B)]”: binds (CSB); no binding (MBP).

The exact form of at least one protein or probe is not confirmed. For some assays here: No signal at the amounts used counts as a negative. For some assays here: At least one verdict was read from the data and is not stated in words by the source.
